From the supplement of paper PMC6078165
Values are relative to the signal before dosing, not to a vehicle control; the signal also falls without drug.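 Fibroblast labels name human fibroblasts: mostly primary ones from tissues such as uterus (C12385, HUF), lung (H6013), bone (Hs27A), adrenal (HADF) and skin (WS1), plus mammary HMF and breast cancer-associated Hs343T. The cancer cells are basal-like or mesenchymal-like triple-negative breast cancer lines. The paper calls a changed response a hit when it shifts by more than 3x the replicate standard deviation. The tissue of the other fibroblasts is not given here.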

Tested on: Hs578T
Assay: relative JC-1 red fluorescence (viability) vs pre-drug, coculture with fibroblast (fraction); higher = more viable cancer cells
Settings: 0.1 µM
Experimental: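 JC-1 labelled TNBC cells cocultured 1:1 (1,500 cells each) with CellTrace Violet stained primary or stromal fibroblasts in 384-well plates in FluoroBrite medium, treated with one of 42 anticancer drugs at 0.1, 1, 10 or 100 uM. JC-1 red fluorescence (mitochondrial integrity in cancer cells only) was read by plate reader every 8 h for 72 h. Values are normalised to each well's pre-drug value. The stock of one drug was tenfold lower, so its dose labels may be too high.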

CC[C@]1(O)C[C@H]2CN(CCc3c([nH]c4ccccc34)[C@@](C(=O)OC)(c3cc4c(cc3OC)N(C=O)[C@H]3[C@@](O)(C(=O)OC)[C@H](OC(C)=O)[C@]5(CC)C=CCN6CC[C@]43[C@@H]65)C2)C1 [Vincristine]
Settings | relative JC-1 red fluorescence
8 h | 0.871
16 h | 0.767
24 h | 0.71
32 h | 0.658
40 h | 0.569
48 h | 0.532
56 h | 0.514
64 h | 0.488
72 h | 0.4926

relative JC-1 red fluorescence
Settings | 8 h | 16 h | 24 h | 32 h | 40 h | 48 h | 56 h | 64 h | 72 h
coculture fibroblast: C12385 | 0.831 | 0.743 | 0.716 | 0.612 | 0.547 | 0.515 | 0.492 | 0.496 | 0.506
coculture fibroblast: H6013 | 0.83347 | 0.789 | 0.7605 | 0.72 | 0.689 | 0.702 | 0.705 | 0.728 | 0.723
coculture fibroblast: H6019 | 0.8006 | 0.713 | 0.7129 | 0.6324 | 0.607 | 0.598 | 0.59 | 0.597 | 0.597
coculture fibroblast: H6076 | 0.914 | 0.8501 | 0.82 | 0.786 | 0.715 | 0.721 | 0.706 | 0.717 | 0.739
coculture fibroblast: H6231 | 0.862 | 0.762 | 0.6771 | 0.6075 | 0.5259 | 0.5006 | 0.469 | 0.468 | 0.475
coculture fibroblast: HADF | 0.8606 | 0.8 | 0.743 | 0.7045 | 0.698 | 0.69887 | 0.6928 | 0.7088 | 0.717
coculture fibroblast: HCFa | 0.846 | 0.795 | 0.744 | 0.683 | 0.623 | 0.614 | 0.597 | 0.595 | 0.574
coculture fibroblast: HCPF | 0.916 | 0.824 | 0.755 | 0.702 | 0.605 | 0.573 | 0.538 | 0.509 | 0.49
coculture fibroblast: HHSteC | 0.8542 | 0.825 | 0.8 | 0.766 | 0.722 | 0.696 | 0.687 | 0.681 | 0.663
coculture fibroblast: HMF | 0.8612 | 0.746 | 0.689 | 0.647 | 0.551 | 0.525 | 0.502 | 0.497 | 0.501
coculture fibroblast: HPFa | 0.8606 | 0.8259 | 0.768 | 0.706 | 0.665 | 0.639 | 0.605 | 0.596 | 0.571
coculture fibroblast: HUF | 0.813 | 0.708 | 0.682 | 0.565 | 0.506 | 0.479 | 0.456 | 0.462 | 0.466
coculture fibroblast: Hs27A | 0.8737 | 0.85251 | 0.8106 | 0.762 | 0.709 | 0.72 | 0.702 | 0.713 | 0.699
coculture fibroblast: Hs343T | 0.864 | 0.745 | 0.688 | 0.65 | 0.564 | 0.544 | 0.517 | 0.513 | 0.53
coculture fibroblast: WS1 | 0.799 | 0.683 | 0.66 | 0.56 | 0.504 | 0.491 | 0.457 | 0.475 | 0.481
